Among all 1,400 compounds or so, about 1,000 (71%) were called active. So high a share suggests a set chosen from earlier hits. Inconclusive results, whose numbers are uncertain, are shown with a selection of clear calls. Calls follow the shape of the dose curve; as a rule, active = well fitted inhibition curve with a large enough effect; inconclusive = small, poorly fitted or top-dose-only effect; inactive = no such curve, though single readings can be large or run the other way. Potencies beside an inconclusive call are fits to weak or partial responses and may not hold up.
assay: Nrf2 qHTS screen for inhibitors: Nrf2 A549 ARE-Fluc Confirmation Assay for Hit Validation; settings: A549 ARE-firefly luciferase reporter, luminescence; series mostly up to 46.1 µM; also: nearly all actives have a fitted effect of over 65% in size
Outline: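 A549 ARE-Fluc cells (5000/well) rested 2 h, then exposed to compounds for 18-24 h at 37 °C, 5% CO2. CellTiter Fluor flagged cytotoxicity; BugLite luciferase luminescence then gauged Nrf2 activity, with lower signal meaning inhibition.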
Potency is read from the fitted curve at half-maximal effect.

Potency, inactive:
COc1ccc2c(Sc3ccccc3)c(C(=O)NCc3cccc(OC)c3OC)[nH]c2c1
Cc1ccc(-c2nnc(SCC(=O)NC3CCCC3)nc2-c2ccc(C)cc2)cc1
Cc1cccc(C(=O)Nc2ccnc(-c3ccncc3)n2)c1
Cc1ccc(CN2C(=O)N/C(=C\c3cccn3-c3cccc(C(=O)O)c3)C2=O)cc1
COc1cccc(CN(C)C(=O)c2cccc(S(=O)(=O)NCc3ccccc3)c2)c1OC
O=C(c1cc(COc2ccc3ncccc3c2)on1)N1CCC(O)CC1
COc1ccc(Br)cc1CN(C)C(=O)Cc1ccc(OC)c(S(=O)(=O)N2CCOCC2)c1
O=C(Nc1cccc(F)c1)C1CCN(S(=O)(=O)c2cccc3nsnc23)CC1
O=C(Cc1ccc(Cl)cc1)Nc1ccncc1
N#Cc1ccc(N2CCN(c3ccc(F)cc3)CC2)cc1
CC1CCN(S(=O)(=O)c2ccc(NC(=O)C3CC(=O)N(c4ccccc4)C3)cc2)CC1 (stereo not drawn)
Cc1ccc(S(=O)(=O)N(Cc2ccccc2)c2ccccc2C(=O)NCc2ccco2)cc1
COc1ccc(NC(=O)COC(=O)c2cc(OC)c(OC)cc2NC(=O)c2ccco2)cc1OC
Cc1ccc(N2CCN(S(=O)(=O)N3CCCCC3)CC2)c(C)c1

Potency, active:
CN1/C(=C\C(=O)C[n+]2ccc(C(=O)c3ccccc3)cc2)C(C)(C)c2ccccc21 5.17 µM
O=C(CNc1cccc2ccccc12)N/N=C/c1ccc[nH]1 2.91 µM
CCN1/C(=C/c2cccc[n+]2C)Sc2ccc(OC)cc21 6.51 µM
COc1ccccc1NC(=S)NN=C(C)c1ccccn1 2.59 µM
CN(C)c1ccc(/C=C/c2cccc3cc4ccccc4nc23)cc1 1.64 µM
CCN(CC)S(=O)(=O)c1ccc2oc(C(=O)NCc3ccc(F)cc3)c(C)c2c1 23.1 µM
NC(=S)N/N=C/c1ncc(C(F)(F)F)cc1Cl 5.17 µM
CCCCN(C(=O)c1ccc(N2CCCC2=O)cc1)c1c(N)n(Cc2ccccc2)c(=O)[nH]c1=O 3.66 µM
Clc1ccc(OCCN2CCN(c3ncnc4sccc34)CC2)cc1 0.461 µM
Cn1nc(C(C)(C)C)cc1C(=O)NCc1ccc2c(c1)OCO2 3.66 µM
COc1ccc2c(c1)N(C)/C(=C/c1cccc[n+]1C)S2 4.11 µM
CCN(CC(=O)Nc1c(F)cccc1F)C(=O)c1cc(S(=O)(=O)N(CC)CC)ccc1N1CCCCC1 10.3 µM
COc1ccc(-c2c[n+]3c(n2-c2ccccc2)SCC3)cc1 7.31 µM
COc1ccc(-c2csc(NC(=O)C3CCN(c4ncnc5sc(C)c(C)c45)CC3)n2)cc1OC 6.51 µM

Potency, inconclusive:
CC1Sc2ccc(S(=O)(=O)N3CCN(c4ccccc4)CC3)cc2NC1=O (stereo not drawn) 18.4 µM [inhibitor, single point]
CN(CC(=O)Nc1ccccc1Br)c1ncnc2sccc12 18.4 µM [inhibitor, partial curve]
CCN(CC)S(=O)(=O)c1ccc2oc(SCC3CN=C(c4ccc(OC)cc4)S3)nc2c1 (stereo not drawn) 16.4 µM [inhibitor, single point]
CC(C)CC(=O)N1CCN(S(=O)(=O)c2ccc(C3CCCCC3)cc2)CC1 23.1 µM [inhibitor, single point]
O=C1c2ccc(Oc3ccc([N+](=O)[O-])cc3)cc2C(=O)N1CCCO 3.66 µM [inhibitor, full curve]
COc1ccc(CN(C)c2ccc(S(=O)(=O)N3CCN(C)CC3)cc2[N+](=O)[O-])cc1OC 16.4 µM [inhibitor, single point]
O=C1CC(c2ccco2)Cc2[nH]c(=O)c(C(=O)Nc3ccccc3)cc21 (stereo not drawn) 6.51 µM [inhibitor, partial curve, poor fit]
C/C(=N\NC(=O)c1cc(-c2cccc([N+](=O)[O-])c2)n[nH]1)c1ccccc1O 29.1 µM [inhibitor, single point]
O=C(c1cc(COc2ccc3ncccc3c2)on1)N1CCCC1 20.6 µM [inhibitor, single point]
COc1cc(/C=C(/C#N)c2ccc(C)cc2)ccc1Oc1ccc([N+](=O)[O-])cn1 20.6 µM [inhibitor, single point]
CC(C)C[C@H](N)c1cn([C@@H](CCCCN)C(=O)N2CCNCC2)nn1 7.31 µM [inhibitor, partial curve, poor fit]
Cc1ccc(-c2onc(C)c2C)cc1S(=O)(=O)N1c2ccccc2CC1C (stereo not drawn) 29.1 µM [inhibitor, single point]
COc1ccc(S(=O)(=O)N2CCC(C(=O)Nc3ccc(Oc4ccccc4)cc3)CC2)cc1 1.64 µM [inhibitor, full curve]
CCC(c1nnnn1Cc1ccccc1)N(Cc1ccccc1)Cc1cc2cc(C)ccc2[nH]c1=O (stereo not drawn) 20.6 µM [inhibitor, single point]
CC(=O)c1c(C)n(CC(=O)NCc2ccc3c(c2)OCO3)c2ccccc12 29.1 µM [inhibitor, single point]
C=CCn1c(SCc2c(C)noc2C)nc2sc3c(c2c1=O)CCCC3 11.6 µM [inhibitor, partial curve, poor fit]
COc1ccc(CNc2cc(C)nc3ncnn23)c(OC)c1 5.17 µM [inhibitor, full curve]
COc1cc(NCCCC(C)N)c2ncccc2c1 (stereo not drawn) 2.91 µM [inhibitor, full curve, poor fit]
CS(=O)(=O)N1CCCc2cc(C(=O)Nc3cccc(C(F)(F)F)c3)ccc21 16.4 µM [inhibitor, single point]
Cc1cc2oc(=O)cc(CSc3nnc(-c4cccs4)o3)c2cc1C(C)C 18.4 µM [inhibitor, partial curve, poor fit]
COc1ccc(COC(=O)C2=C(C)NC(=O)NC2c2cccc(Br)c2)cc1 (stereo not drawn) 9.2 µM [inhibitor, partial curve]
N=c1c2c(n(Cc3ccccc3)c3c1CCC3)CCC2 4.61 µM [inhibitor, full curve, poor fit]
CC(=O)N(C)c1ccc(OCC(O)Cn2c(C)nc3ccccc32)cc1 (stereo not drawn) 7.31 µM [inhibitor, partial curve, poor fit]
Cc1cc(C(=O)COC(=O)c2ccc(N)c([N+](=O)[O-])c2)c(C)n1-c1ccc2c(c1)OCO2 7.31 µM [inhibitor, partial curve, poor fit]
Cc1cccnc1CN1CCN(C(=O)c2cc(COc3ccc4ncccc4c3)on2)CC1 23.1 µM [inhibitor, single point]
CCOc1ccc(CCNc2ncnc3onc(C)c23)cc1OCC 29.1 µM [inhibitor, single point]
COc1ccc(OC)c(Nc2nc(-c3sc(NC(=O)C(C)(C)C)nc3C)cs2)c1 18.4 µM [inhibitor, single point]
COc1ccc(S(=O)(=O)NCc2cccnc2)cc1Br 14.6 µM [inhibitor, partial curve, poor fit]
Cc1cc(S(=O)(=O)NCc2ccncc2)c(C)cc1Br 3.66 µM [inhibitor, full curve]
CCOC(=O)c1c(NC(=O)CC2SC(N)=NC2=O)sc2c1CCCC2 (stereo not drawn) 5.17 µM [inhibitor, full curve, poor fit]
O=C(NCCc1ccc(F)cc1)c1ccc(Cl)c(S(=O)(=O)N2CCOCC2)c1 11.6 µM [inhibitor, partial curve]
COc1ccc2[nH]c(=O)c(CN(Cc3cccs3)C(=S)Nc3cccc(C)c3)cc2c1 7.31 µM [inhibitor, partial curve]
Cc1nc2ccccc2n1Cc1ccc(Br)cc1 4.11 µM [inhibitor, partial curve, poor fit]
COc1ccc(/C=N\NC(=O)c2ccccc2Br)cc1COc1c(F)c(F)cc(F)c1F 16.4 µM [inhibitor, single point]
C=C(c1ccc2ccccc2n1)c1cccs1 9.2 µM [inhibitor, partial curve, poor fit]
O=C(NC(=S)Nc1ccc(Cc2ccncc2)cc1)c1ccc(F)cc1 29.1 µM [inhibitor, single point]
CCOc1ccc(S(=O)(=O)NCc2ccncc2)cc1NC(=O)c1ccccc1F 3.26 µM [inhibitor, single point]
Cc1ccc(C(=O)NNC(=O)CCCN2C(=O)/C(=C/c3ccccc3Cl)SC2=S)cc1 29.1 µM [inhibitor, single point]
CN(C)c1ccc(CNC(=O)C2CCCN(S(=O)(=O)c3ccc4c(c3)CCCC(=O)N4)C2)cc1 (stereo not drawn) 20.6 µM [inhibitor, single point]
CC1Cc2cc(S(=O)(=O)NCc3ccccc3)ccc2N1C(=O)C1CCC1 (stereo not drawn) 4.61 µM [inhibitor, partial curve]

At a glance, some entries already given.
Potency, inconclusive:
Cc1cc(S(=O)(=O)NCc2ccncc2)c(C)cc1Br 3.66 µM [inhibitor, full curve]
CCOC(=O)c1c(NC(=O)CC2SC(N)=NC2=O)sc2c1CCCC2 (stereo not drawn) 5.17 µM [inhibitor, full curve, poor fit]
O=C(NCCc1ccc(F)cc1)c1ccc(Cl)c(S(=O)(=O)N2CCOCC2)c1 11.6 µM [inhibitor, partial curve]

— PubChem BioAssay AID720524 (National Center for Advancing Translational Sciences (NCATS), 2013)
